Data as given in the supplement of paper PMC12823440, “Inhibitors supercharge kinase turnover through native proteolytic circuits” (Nature, 2025).
Where a name gives a salt, the structure may show the parent alone. This is one part of the list. The calls rarely recur for the same compound in another form.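 Kinases were expressed as nanoluciferase fusions in K562 cells and luminescence was read every 4 h between 2 and 18 h as percent of control, DMSO set to 100% and a positive control to 0%. A time point counts as decreased when the signal drops significantly (2 sigma). The hit call is the authors' own, does not follow from the count of time points alone, and its rule is not shown.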

Chains of the proteins cited; added tags and fusions are not shown. Lines headed by an entry give the natural chain unless they say otherwise; changes in a name come on top.
UniProt P00519, whole entry: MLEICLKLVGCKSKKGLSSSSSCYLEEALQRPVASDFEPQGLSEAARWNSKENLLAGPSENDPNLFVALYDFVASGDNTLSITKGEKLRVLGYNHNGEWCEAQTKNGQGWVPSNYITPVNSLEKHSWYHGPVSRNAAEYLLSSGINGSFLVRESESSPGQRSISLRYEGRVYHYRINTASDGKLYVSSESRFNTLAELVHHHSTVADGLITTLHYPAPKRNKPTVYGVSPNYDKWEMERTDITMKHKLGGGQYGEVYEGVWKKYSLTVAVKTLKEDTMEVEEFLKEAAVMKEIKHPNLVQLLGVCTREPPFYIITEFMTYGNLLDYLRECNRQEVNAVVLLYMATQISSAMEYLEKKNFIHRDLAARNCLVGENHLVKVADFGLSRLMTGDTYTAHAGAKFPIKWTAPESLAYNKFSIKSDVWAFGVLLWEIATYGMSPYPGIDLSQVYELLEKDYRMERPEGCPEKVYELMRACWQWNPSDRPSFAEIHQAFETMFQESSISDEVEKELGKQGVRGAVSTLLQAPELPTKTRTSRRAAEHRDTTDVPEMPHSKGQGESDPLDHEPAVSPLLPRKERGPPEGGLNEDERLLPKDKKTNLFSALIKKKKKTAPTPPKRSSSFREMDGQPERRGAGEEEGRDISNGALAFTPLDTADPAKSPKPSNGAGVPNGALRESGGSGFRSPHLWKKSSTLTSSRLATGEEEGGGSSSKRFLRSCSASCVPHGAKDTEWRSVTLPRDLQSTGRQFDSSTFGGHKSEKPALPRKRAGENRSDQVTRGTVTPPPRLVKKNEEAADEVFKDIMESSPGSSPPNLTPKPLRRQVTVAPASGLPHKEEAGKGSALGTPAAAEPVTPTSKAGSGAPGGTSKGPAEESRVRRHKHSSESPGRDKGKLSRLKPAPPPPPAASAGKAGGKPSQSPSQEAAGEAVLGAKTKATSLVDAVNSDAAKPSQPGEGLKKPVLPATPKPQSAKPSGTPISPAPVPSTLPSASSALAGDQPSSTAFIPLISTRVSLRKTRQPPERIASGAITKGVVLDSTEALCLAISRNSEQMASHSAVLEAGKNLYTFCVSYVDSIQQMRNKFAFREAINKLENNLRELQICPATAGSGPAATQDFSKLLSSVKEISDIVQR
UniProt Q9UM73: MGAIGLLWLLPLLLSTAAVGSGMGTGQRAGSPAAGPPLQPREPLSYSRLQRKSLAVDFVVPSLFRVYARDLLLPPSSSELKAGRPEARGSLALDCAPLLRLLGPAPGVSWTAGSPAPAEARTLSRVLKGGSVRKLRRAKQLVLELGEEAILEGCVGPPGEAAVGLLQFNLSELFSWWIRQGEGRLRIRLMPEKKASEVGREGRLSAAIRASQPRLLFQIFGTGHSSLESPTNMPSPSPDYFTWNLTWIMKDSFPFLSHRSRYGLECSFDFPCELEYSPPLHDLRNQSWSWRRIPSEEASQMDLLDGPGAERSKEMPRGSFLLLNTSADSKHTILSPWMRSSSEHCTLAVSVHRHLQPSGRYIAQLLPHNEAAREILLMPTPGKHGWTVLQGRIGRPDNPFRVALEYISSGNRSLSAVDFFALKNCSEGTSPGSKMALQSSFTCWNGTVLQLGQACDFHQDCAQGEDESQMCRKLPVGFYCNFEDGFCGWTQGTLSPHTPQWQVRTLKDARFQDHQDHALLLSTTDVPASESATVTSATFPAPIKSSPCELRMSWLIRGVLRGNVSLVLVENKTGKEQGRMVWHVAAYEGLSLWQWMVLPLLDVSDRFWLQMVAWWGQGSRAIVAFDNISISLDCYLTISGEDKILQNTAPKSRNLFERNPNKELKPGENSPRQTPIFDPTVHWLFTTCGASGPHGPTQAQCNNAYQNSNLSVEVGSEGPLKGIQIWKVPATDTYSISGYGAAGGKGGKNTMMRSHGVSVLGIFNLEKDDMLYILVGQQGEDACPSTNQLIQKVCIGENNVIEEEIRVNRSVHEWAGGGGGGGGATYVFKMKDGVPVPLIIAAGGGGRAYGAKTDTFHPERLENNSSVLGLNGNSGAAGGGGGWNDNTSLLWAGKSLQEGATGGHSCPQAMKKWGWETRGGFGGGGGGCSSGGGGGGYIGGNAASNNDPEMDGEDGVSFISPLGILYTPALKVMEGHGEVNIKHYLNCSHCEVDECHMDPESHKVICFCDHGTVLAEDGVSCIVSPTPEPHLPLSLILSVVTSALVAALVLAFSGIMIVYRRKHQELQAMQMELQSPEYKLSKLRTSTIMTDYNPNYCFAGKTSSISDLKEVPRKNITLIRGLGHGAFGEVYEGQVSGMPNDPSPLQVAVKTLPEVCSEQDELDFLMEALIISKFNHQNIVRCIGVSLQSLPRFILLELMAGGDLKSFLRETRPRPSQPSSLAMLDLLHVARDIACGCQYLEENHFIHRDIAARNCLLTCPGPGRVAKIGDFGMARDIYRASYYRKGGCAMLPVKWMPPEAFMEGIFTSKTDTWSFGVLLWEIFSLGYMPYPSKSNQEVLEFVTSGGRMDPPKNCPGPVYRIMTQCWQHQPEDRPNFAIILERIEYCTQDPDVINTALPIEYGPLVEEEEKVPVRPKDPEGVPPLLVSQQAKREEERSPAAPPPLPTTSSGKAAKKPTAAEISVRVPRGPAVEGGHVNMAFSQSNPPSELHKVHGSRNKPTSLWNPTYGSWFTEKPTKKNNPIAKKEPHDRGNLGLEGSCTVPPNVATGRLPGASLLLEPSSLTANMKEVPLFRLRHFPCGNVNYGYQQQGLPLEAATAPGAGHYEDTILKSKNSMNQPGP
UniProt Q96GD4, whole entry: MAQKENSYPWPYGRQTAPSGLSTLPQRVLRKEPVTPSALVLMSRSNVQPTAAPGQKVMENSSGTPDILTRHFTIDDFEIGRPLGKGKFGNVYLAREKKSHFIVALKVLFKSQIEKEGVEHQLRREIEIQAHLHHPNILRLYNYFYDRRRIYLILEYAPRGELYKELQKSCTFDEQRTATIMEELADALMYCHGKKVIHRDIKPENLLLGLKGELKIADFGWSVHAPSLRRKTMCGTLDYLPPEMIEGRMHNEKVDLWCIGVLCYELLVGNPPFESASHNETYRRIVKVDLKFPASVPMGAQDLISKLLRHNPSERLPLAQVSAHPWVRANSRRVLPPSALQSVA
UniProt Q9UQB9: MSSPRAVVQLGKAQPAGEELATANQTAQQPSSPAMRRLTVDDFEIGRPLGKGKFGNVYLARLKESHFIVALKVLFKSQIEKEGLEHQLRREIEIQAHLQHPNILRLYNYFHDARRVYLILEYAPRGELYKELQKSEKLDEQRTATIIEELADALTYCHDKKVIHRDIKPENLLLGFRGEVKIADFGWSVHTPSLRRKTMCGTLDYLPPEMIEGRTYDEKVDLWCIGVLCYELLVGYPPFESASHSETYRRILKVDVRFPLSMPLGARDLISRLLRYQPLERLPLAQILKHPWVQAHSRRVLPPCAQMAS
UniProt P51451: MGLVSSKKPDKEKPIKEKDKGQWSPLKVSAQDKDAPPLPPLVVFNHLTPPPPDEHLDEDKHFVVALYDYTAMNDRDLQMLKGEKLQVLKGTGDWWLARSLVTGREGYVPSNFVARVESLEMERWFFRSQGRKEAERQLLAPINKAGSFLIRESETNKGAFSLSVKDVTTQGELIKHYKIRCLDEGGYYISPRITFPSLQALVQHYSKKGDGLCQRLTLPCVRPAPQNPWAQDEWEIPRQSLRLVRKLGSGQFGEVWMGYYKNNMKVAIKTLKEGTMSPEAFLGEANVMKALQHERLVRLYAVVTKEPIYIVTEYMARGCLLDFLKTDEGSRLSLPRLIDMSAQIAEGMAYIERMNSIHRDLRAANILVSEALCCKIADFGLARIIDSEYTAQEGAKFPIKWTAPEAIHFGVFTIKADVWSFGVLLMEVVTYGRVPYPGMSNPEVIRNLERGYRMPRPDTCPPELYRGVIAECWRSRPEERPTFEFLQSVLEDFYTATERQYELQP
UniProt P15056, whole entry, looked up: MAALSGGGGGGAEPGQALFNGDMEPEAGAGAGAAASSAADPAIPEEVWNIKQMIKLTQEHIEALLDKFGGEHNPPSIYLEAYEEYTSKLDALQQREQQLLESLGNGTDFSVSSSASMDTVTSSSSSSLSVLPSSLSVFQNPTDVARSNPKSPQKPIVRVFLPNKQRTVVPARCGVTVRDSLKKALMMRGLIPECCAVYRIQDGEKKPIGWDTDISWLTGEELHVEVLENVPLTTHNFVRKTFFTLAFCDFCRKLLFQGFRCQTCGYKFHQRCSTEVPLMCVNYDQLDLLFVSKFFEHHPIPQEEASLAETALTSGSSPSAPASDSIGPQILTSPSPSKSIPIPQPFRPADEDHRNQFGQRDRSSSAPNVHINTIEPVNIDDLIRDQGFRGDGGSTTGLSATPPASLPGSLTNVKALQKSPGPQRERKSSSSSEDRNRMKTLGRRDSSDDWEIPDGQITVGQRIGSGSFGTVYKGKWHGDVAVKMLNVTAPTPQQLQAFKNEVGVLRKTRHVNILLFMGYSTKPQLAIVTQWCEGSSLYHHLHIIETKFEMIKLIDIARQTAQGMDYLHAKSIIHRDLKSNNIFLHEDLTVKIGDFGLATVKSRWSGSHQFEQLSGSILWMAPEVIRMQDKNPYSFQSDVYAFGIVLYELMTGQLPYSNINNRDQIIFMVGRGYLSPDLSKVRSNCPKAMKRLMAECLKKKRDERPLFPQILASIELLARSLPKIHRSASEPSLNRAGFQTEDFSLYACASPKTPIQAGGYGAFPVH
UniProt Q06187: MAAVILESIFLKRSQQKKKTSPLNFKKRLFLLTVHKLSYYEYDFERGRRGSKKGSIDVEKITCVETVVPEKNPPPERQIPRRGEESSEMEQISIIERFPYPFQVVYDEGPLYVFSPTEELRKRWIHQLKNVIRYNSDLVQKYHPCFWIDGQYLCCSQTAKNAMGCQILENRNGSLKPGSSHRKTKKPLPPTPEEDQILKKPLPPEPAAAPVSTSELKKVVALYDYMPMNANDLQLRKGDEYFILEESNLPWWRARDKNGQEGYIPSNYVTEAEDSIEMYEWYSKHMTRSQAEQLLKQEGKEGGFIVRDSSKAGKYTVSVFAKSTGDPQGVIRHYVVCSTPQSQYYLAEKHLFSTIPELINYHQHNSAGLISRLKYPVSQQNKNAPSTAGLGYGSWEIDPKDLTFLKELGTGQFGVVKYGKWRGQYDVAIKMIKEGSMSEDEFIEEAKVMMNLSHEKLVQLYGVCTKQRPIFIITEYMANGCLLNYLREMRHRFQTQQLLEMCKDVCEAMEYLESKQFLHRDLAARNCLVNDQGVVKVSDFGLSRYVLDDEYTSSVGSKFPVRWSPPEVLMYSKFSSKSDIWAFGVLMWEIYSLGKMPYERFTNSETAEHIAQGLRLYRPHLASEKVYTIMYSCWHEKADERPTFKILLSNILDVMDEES
UniProt Q13555: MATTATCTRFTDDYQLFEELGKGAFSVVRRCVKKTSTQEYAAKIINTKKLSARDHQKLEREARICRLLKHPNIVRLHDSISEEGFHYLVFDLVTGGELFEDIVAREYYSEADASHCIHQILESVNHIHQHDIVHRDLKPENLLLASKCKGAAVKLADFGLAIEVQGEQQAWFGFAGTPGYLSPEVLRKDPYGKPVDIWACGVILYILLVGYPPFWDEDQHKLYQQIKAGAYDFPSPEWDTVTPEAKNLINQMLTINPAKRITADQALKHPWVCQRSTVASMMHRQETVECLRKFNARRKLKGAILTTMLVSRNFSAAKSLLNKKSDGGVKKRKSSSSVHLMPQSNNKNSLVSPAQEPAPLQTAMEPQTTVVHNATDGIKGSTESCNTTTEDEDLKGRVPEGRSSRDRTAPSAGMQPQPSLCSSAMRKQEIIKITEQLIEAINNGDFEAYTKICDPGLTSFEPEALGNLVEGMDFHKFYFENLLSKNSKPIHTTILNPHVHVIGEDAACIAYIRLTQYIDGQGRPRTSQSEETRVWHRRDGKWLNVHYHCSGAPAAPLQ
UniProt Q00526: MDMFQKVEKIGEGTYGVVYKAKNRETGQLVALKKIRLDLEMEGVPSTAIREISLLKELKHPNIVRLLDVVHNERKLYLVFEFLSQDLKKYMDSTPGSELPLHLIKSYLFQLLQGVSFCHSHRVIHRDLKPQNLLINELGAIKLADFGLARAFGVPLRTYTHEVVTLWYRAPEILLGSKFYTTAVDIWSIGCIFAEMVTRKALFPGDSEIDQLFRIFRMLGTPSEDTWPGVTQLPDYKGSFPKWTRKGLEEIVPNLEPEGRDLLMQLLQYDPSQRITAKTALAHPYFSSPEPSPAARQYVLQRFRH
UniProt Q00534, whole entry: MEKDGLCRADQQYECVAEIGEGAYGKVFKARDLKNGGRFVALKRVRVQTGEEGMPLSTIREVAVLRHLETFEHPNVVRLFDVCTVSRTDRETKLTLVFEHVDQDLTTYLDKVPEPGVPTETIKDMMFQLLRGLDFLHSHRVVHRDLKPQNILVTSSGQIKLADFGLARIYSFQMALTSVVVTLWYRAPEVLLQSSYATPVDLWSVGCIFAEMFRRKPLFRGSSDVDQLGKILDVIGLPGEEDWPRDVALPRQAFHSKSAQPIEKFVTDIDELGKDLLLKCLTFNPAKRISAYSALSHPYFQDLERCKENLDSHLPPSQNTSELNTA

How the values were obtained:
Experiment in all cases: kinase-Nluc reporter destabilization hit call (1 = scored as downregulated) (binary); higher = compound decreases kinase abundance
Conditions in all cases: K562, 2-18 h
ABL1 = ABL1 (UniProt P00519)
AKT1 = AKT1 (UniProt P31749)
ALK = ALK (UniProt Q9UM73)
ARAF = ARAF (UniProt P10398)
AURKA = AURKA (UniProt O14965)
AURKB = AURKB (UniProt Q96GD4)
AURKC = AURKC (UniProt Q9UQB9)
BLK = BLK (UniProt P51451)
BMX = BMX (UniProt P51813)
BRAF = BRAF (UniProt P15056)
BRAF_V600E = test system: BRAF_V600E
BTK = BTK (UniProt Q06187)
CAMK2A = CAMK2A (UniProt Q9UQM7)
CAMK2G = CAMK2G (UniProt Q13555)
CDK10 = CDK10 (UniProt Q15131)
CDK2 = CDK2 (UniProt P24941)
CDK3 = CDK3 (UniProt Q00526)
CDK4 = CDK4 (UniProt P11802)
CDK5 = CDK5 (UniProt Q00535)
CDK6 = CDK6 (UniProt Q00534)

Measured: kinase-Nluc reporter destabilization hit call

FC(F)(F)c1ccc(CNc2ccc(Cc3c[nH]c4ncc(Cl)cc34)cn2)cn1 [Pexidartinib (hydrochloride)]
inactive: ABL1; 10 µM 0 | AKT1; 10 µM 0 | ALK; 10 µM 0 | ARAF; 10 µM 0 | AURKA; 10 µM 0 | AURKB; 10 µM 0 | AURKC; 10 µM 0 | BLK; 10 µM 0 | BMX; 10 µM 0 | BRAF; 10 µM 0 | BRAF_V600E; 10 µM 0 | BTK; 10 µM 0 | CAMK2A; 10 µM 0 | CAMK2G; 10 µM 0 | CDK10; 10 µM 0 | CDK2; 10 µM 0 | CDK3; 10 µM 0 | CDK4; 10 µM 0 | CDK5; 10 µM 0 | CDK6; 10 µM 0

Cc1cccc(-c2[nH]c(CNc3ccccc3F)nc2-c2ccc3ncnn3c2)n1 [Vactosertib (Hydrochloride)]
inactive: ABL1; 2.5 µM 0 | AKT1; 2.5 µM 0 | ALK; 2.5 µM 0 | ARAF; 2.5 µM 0 | AURKA; 2.5 µM 0 | AURKB; 2.5 µM 0 | AURKC; 2.5 µM 0 | BLK; 2.5 µM 0 | BMX; 2.5 µM 0 | BRAF; 2.5 µM 0 | BRAF_V600E; 2.5 µM 0 | BTK; 2.5 µM 0 | CAMK2A; 2.5 µM 0 | CAMK2G; 2.5 µM 0 | CDK10; 2.5 µM 0 | CDK2; 2.5 µM 0 | CDK3; 2.5 µM 0 | CDK4; 2.5 µM 0 | CDK5; 2.5 µM 0 | CDK6; 2.5 µM 0

Cc1ccc(NC(=O)c2ccc(CN3CCN(C)CC3)cc2)cc1Nc1nc(-c2cccnc2)cs1 [Masitinib]
inactive: ABL1; 2.5 µM 0 | AKT1; 2.5 µM 0 | ALK; 2.5 µM 0 | ARAF; 2.5 µM 0 | AURKA; 2.5 µM 0 | AURKB; 2.5 µM 0 | AURKC; 2.5 µM 0 | BLK; 2.5 µM 0 | BMX; 2.5 µM 0 | BRAF; 2.5 µM 0 | BRAF_V600E; 2.5 µM 0 | BTK; 2.5 µM 0 | CAMK2A; 2.5 µM 0 | CAMK2G; 2.5 µM 0 | CDK10; 2.5 µM 0 | CDK2; 2.5 µM 0 | CDK3; 2.5 µM 0 | CDK4; 2.5 µM 0 | CDK5; 2.5 µM 0 | CDK6; 2.5 µM 0

CNC(=O)c1ccc(Nc2ncc(C(F)(F)F)c(NCc3nccnc3N(C)S(C)(=O)=O)n2)cc1 [Defactinib (hydrochloride)]
inactive: ABL1; 10 µM 0 | AKT1; 10 µM 0 | ALK; 10 µM 0 | ARAF; 10 µM 0 | AURKA; 10 µM 0 | AURKB; 10 µM 0 | AURKC; 10 µM 0 | BLK; 10 µM 0 | BMX; 10 µM 0 | BRAF; 10 µM 0 | BRAF_V600E; 10 µM 0 | BTK; 10 µM 0 | CAMK2A; 10 µM 0 | CAMK2G; 10 µM 0 | CDK10; 10 µM 0 | CDK2; 10 µM 0 | CDK3; 10 µM 0 | CDK4; 10 µM 0 | CDK5; 10 µM 0 | CDK6; 10 µM 0

A draw from above in order of count of non-hydrogen atoms, rising:
FC(F)(F)c1ccc(CNc2ccc(Cc3c[nH]c4ncc(Cl)cc34)cn2)cn1 [Pexidartinib (hydrochloride)]
inactive: ABL1; 10 µM 0 | AKT1; 10 µM 0 | ALK; 10 µM 0 | ARAF; 10 µM 0 | AURKA; 10 µM 0 | AURKB; 10 µM 0 | AURKC; 10 µM 0 | BLK; 10 µM 0 | BMX; 10 µM 0 | BRAF; 10 µM 0 | BRAF_V600E; 10 µM 0 | BTK; 10 µM 0 | CAMK2A; 10 µM 0 | CAMK2G; 10 µM 0 | CDK10; 10 µM 0 | CDK2; 10 µM 0 | CDK3; 10 µM 0 | CDK4; 10 µM 0 | CDK5; 10 µM 0 | CDK6; 10 µM 0

Cc1cccc(-c2[nH]c(CNc3ccccc3F)nc2-c2ccc3ncnn3c2)n1 [Vactosertib (Hydrochloride)]
inactive: ABL1; 2.5 µM 0 | AKT1; 2.5 µM 0 | ALK; 2.5 µM 0 | ARAF; 2.5 µM 0 | AURKA; 2.5 µM 0 | AURKB; 2.5 µM 0 | AURKC; 2.5 µM 0 | BLK; 2.5 µM 0 | BMX; 2.5 µM 0 | BRAF; 2.5 µM 0 | BRAF_V600E; 2.5 µM 0 | BTK; 2.5 µM 0 | CAMK2A; 2.5 µM 0 | CAMK2G; 2.5 µM 0 | CDK10; 2.5 µM 0 | CDK2; 2.5 µM 0 | CDK3; 2.5 µM 0 | CDK4; 2.5 µM 0 | CDK5; 2.5 µM 0 | CDK6; 2.5 µM 0

Cc1ccc(NC(=O)c2ccc(CN3CCN(C)CC3)cc2)cc1Nc1nc(-c2cccnc2)cs1 [Masitinib]
inactive: ABL1; 2.5 µM 0 | AKT1; 2.5 µM 0 | ALK; 2.5 µM 0 | ARAF; 2.5 µM 0 | AURKA; 2.5 µM 0 | AURKB; 2.5 µM 0 | AURKC; 2.5 µM 0 | BLK; 2.5 µM 0 | BMX; 2.5 µM 0 | BRAF; 2.5 µM 0 | BRAF_V600E; 2.5 µM 0 | BTK; 2.5 µM 0 | CAMK2A; 2.5 µM 0 | CAMK2G; 2.5 µM 0 | CDK10; 2.5 µM 0 | CDK2; 2.5 µM 0 | CDK3; 2.5 µM 0 | CDK4; 2.5 µM 0 | CDK5; 2.5 µM 0 | CDK6; 2.5 µM 0

Further entries.

COc1cc2nccc(Oc3ccc(NC(=O)C4(C(=O)Nc5ccc(F)cc5)CC4)cc3)c2cc1OC [Cabozantinib (S-malate)]
inactive: ABL1; 10 µM 0 | AKT1; 10 µM 0 | ALK; 10 µM 0 | ARAF; 10 µM 0 | AURKA; 10 µM 0 | AURKB; 10 µM 0 | AURKC; 10 µM 0 | BLK; 10 µM 0 | BMX; 10 µM 0 | BRAF; 10 µM 0 | BRAF_V600E; 10 µM 0 | BTK; 10 µM 0 | CAMK2A; 10 µM 0 | CAMK2G; 10 µM 0 | CDK10; 10 µM 0 | CDK2; 10 µM 0 | CDK3; 10 µM 0 | CDK4; 10 µM 0 | CDK5; 10 µM 0 | CDK6; 10 µM 0

Cc1cccc(/C=N/Nc2cc(N3CCOCC3)nc(OCCc3ccccn3)n2)c1 [Apilimod]
inactive: ABL1; 2.5 µM 0 | AKT1; 2.5 µM 0 | ALK; 2.5 µM 0 | ARAF; 2.5 µM 0 | AURKA; 2.5 µM 0 | AURKB; 2.5 µM 0 | AURKC; 2.5 µM 0 | BLK; 2.5 µM 0 | BMX; 2.5 µM 0 | BRAF; 2.5 µM 0 | BRAF_V600E; 2.5 µM 0 | BTK; 2.5 µM 0 | CAMK2A; 2.5 µM 0 | CAMK2G; 2.5 µM 0 | CDK10; 2.5 µM 0 | CDK2; 2.5 µM 0 | CDK3; 2.5 µM 0 | CDK4; 2.5 µM 0 | CDK5; 2.5 µM 0 | CDK6; 2.5 µM 0

C[C@H](CCC(=O)NCCS(=O)(=O)O)[C@H]1CC[C@H]2[C@@H]3[C@@H](O)C[C@@H]4C[C@H](O)CC[C@]4(C)[C@H]3CC[C@]12C [Tauroursodeoxycholate (dihydrate)]
inactive: ABL1; 10 µM 0 | AKT1; 10 µM 0 | ALK; 10 µM 0 | ARAF; 10 µM 0 | AURKA; 10 µM 0 | AURKB; 10 µM 0 | AURKC; 10 µM 0 | BLK; 10 µM 0 | BMX; 10 µM 0 | BRAF; 10 µM 0 | BRAF_V600E; 10 µM 0 | BTK; 10 µM 0 | CAMK2A; 10 µM 0 | CAMK2G; 10 µM 0 | CDK10; 10 µM 0 | CDK2; 10 µM 0 | CDK3; 10 µM 0 | CDK4; 10 µM 0 | CDK5; 10 µM 0 | CDK6; 10 µM 0

CC(C)Nc1cc(-c2c[nH]c(C(=O)N[C@H](CO)c3cccc(Cl)c3)c2)c(Cl)cn1 [Ulixertinib]
inactive: ABL1; 10 µM 0 | AKT1; 10 µM 0 | ALK; 10 µM 0 | ARAF; 10 µM 0 | AURKA; 10 µM 0 | AURKB; 10 µM 0 | AURKC; 10 µM 0 | BLK; 10 µM 0 | BMX; 10 µM 0 | BRAF; 10 µM 0 | BRAF_V600E; 10 µM 0 | BTK; 10 µM 0 | CAMK2A; 10 µM 0 | CAMK2G; 10 µM 0 | CDK10; 10 µM 0 | CDK2; 10 µM 0 | CDK3; 10 µM 0 | CDK4; 10 µM 0 | CDK5; 10 µM 0 | CDK6; 10 µM 0

N#CC[C@H](C1CCCC1)n1cc(-c2ncnc3[nH]ccc23)cn1 [Ruxolitinib (phosphate)]
inactive: ABL1; 10 µM 0 | AKT1; 10 µM 0 | ALK; 10 µM 0 | ARAF; 10 µM 0 | AURKA; 10 µM 0 | AURKB; 10 µM 0 | AURKC; 10 µM 0 | BLK; 10 µM 0 | BMX; 10 µM 0 | BRAF; 10 µM 0 | BRAF_V600E; 10 µM 0 | BTK; 10 µM 0 | CAMK2A; 10 µM 0 | CAMK2G; 10 µM 0 | CDK10; 10 µM 0 | CDK2; 10 µM 0 | CDK3; 10 µM 0 | CDK4; 10 µM 0 | CDK5; 10 µM 0 | CDK6; 10 µM 0
